From ChEMBL document CHEMBL5030544, “Synthesis, anti-microbial, toxicity and molecular docking studies of N-nitroso-N-phenylhydroxylamine (cupferron) and its derivatives” (Bioorg Med Chem Lett, 2021)

Assays:
Escherichia coli [1] = test: Antibacterial activity against Escherichia coli ATCC 25922 assessed as zone of inhibition at 15 mg/ml; assay type: functional
Escherichia coli [2] = test: Antibacterial activity against Escherichia coli ATCC 25922 assessed as zone of inhibition at 10 mg/ml; assay type: functional

With GENTAMICIN the inhibition zone (IZ) (Escherichia coli [1]) was 12 mm and the inhibition zone (IZ) (Escherichia coli [2]) was 8 mm.
